This assay relates to Candida albicans. In words: Antifungal activity against Candida albicans at 100 U/disc at 25 degC after 48 hrs by agar well diffusion assay. The class given is functional, organism-based.

NYSTATIN registered an inhibition zone (IZ) of 19 mm.
